# Test results reported in article PMC10565876.
# Chains of the proteins cited; added tags and fusions are not shown.
# UniProt Q8NHY2: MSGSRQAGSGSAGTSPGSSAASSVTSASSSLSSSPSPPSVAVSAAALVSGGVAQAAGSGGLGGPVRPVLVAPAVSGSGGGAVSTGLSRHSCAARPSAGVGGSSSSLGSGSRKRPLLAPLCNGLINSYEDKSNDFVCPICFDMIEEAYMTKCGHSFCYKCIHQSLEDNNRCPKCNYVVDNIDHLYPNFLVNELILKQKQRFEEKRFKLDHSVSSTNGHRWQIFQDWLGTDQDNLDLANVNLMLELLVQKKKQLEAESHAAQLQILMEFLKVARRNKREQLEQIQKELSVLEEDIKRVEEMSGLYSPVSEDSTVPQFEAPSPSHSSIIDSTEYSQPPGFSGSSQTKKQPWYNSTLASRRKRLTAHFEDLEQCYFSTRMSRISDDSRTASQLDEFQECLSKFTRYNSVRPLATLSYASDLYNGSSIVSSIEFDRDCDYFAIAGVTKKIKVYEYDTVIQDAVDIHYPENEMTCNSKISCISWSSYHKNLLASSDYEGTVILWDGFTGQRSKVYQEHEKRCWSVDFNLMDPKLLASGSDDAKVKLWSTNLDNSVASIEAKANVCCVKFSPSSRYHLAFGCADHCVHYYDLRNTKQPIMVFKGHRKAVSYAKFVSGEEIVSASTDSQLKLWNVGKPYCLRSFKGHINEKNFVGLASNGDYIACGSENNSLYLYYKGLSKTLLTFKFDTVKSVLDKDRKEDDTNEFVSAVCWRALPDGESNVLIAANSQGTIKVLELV
# UniProt Q92466: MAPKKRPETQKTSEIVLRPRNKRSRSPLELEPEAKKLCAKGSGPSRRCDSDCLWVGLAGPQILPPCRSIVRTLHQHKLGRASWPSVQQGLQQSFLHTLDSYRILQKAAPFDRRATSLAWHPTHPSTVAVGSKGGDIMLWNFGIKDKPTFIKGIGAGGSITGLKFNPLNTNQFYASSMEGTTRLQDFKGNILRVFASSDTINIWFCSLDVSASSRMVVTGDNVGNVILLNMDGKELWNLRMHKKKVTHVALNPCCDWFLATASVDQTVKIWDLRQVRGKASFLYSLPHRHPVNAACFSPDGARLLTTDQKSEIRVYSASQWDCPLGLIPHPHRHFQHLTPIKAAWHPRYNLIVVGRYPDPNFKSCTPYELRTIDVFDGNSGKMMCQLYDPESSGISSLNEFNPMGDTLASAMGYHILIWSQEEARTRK
# UniProt Q58WW2: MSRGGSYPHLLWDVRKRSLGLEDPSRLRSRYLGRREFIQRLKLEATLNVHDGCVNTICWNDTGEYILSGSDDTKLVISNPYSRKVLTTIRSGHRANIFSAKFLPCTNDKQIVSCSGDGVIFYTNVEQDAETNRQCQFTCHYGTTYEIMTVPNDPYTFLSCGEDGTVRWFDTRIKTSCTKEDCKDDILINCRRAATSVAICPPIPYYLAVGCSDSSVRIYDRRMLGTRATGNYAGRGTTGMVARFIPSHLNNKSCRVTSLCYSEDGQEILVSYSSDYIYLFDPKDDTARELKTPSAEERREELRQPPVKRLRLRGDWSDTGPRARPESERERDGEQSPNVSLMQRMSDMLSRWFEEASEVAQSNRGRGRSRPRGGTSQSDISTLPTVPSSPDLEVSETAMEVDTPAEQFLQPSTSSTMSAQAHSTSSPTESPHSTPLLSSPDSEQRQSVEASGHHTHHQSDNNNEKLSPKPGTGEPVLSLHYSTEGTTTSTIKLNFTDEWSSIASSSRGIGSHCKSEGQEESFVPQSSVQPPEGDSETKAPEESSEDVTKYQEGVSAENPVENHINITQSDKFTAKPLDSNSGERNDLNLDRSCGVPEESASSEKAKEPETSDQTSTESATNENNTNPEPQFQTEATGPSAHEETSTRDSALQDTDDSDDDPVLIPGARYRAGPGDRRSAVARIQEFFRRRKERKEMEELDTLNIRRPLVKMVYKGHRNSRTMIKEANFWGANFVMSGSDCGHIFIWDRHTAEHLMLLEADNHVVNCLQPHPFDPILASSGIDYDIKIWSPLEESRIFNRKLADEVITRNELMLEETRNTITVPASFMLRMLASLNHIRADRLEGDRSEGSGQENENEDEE
# UniProt Q8TEB1: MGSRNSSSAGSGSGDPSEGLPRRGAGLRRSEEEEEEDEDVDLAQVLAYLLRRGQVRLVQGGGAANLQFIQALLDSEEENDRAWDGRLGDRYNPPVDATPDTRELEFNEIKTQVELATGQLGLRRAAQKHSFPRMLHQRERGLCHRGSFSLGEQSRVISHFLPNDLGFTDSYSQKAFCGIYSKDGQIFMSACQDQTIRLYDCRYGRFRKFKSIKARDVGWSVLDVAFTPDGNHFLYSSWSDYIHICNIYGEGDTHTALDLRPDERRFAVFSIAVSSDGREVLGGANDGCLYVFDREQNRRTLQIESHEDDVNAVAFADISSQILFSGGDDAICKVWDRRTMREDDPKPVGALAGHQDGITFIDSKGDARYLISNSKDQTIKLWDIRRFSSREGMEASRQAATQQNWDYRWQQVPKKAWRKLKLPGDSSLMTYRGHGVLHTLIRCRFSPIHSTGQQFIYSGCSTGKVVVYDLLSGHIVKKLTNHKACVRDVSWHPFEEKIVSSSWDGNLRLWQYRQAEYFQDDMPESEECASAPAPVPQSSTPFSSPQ
# UniProt P62879: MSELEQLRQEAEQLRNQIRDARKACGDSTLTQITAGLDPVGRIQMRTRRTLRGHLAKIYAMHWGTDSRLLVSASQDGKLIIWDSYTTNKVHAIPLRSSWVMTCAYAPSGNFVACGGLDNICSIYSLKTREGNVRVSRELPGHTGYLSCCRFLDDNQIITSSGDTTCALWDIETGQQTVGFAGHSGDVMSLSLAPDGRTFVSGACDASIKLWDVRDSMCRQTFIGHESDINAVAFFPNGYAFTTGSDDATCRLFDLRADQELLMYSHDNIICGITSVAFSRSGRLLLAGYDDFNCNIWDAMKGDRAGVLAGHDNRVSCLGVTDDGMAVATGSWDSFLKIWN
# UniProt Q5TAQ9: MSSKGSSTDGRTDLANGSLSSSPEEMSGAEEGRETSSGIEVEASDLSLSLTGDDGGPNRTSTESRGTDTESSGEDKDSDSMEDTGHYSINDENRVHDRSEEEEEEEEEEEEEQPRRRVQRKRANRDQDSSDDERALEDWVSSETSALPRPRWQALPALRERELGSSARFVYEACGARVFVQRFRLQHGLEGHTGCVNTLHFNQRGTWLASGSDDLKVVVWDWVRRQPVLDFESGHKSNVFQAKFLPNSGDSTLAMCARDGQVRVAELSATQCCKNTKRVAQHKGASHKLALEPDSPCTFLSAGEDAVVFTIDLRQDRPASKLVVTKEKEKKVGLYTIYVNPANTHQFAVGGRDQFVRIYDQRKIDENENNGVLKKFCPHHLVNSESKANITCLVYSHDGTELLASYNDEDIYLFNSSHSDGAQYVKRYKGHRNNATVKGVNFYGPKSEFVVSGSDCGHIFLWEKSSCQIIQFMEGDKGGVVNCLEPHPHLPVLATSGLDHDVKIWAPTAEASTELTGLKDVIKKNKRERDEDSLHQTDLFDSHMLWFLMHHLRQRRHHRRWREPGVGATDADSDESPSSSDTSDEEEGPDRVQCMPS
# UniProt Q9BQ67: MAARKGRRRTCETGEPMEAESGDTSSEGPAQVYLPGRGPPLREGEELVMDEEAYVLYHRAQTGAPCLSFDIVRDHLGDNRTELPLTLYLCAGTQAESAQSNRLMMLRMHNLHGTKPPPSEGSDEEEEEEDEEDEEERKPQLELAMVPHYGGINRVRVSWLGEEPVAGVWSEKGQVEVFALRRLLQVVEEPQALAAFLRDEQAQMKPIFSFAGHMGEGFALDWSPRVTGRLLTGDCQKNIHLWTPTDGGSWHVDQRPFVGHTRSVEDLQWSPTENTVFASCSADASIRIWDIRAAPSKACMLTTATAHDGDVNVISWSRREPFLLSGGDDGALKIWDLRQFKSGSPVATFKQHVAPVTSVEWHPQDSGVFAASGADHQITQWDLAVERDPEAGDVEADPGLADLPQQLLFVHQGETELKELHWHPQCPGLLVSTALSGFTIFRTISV
# UniProt Q9NZJ0: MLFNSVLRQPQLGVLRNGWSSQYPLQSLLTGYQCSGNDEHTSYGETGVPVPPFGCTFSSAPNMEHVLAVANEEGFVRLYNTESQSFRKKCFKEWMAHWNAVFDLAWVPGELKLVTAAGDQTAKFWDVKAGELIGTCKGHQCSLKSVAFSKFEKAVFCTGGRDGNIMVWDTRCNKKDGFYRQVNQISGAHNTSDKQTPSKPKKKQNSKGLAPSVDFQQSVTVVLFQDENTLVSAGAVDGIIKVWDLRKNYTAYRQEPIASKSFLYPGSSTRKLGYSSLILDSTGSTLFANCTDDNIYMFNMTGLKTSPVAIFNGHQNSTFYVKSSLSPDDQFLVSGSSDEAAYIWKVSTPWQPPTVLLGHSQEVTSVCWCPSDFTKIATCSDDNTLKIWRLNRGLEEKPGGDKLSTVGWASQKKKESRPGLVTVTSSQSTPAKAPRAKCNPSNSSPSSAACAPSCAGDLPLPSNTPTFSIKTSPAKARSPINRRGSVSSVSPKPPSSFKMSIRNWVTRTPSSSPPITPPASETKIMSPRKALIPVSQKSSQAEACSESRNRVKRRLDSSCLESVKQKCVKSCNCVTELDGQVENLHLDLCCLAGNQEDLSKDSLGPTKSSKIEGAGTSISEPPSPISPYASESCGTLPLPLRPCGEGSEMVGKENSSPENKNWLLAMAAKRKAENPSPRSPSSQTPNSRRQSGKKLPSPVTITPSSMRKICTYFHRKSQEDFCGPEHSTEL
# Results are given in words; binding and its absence hold for the method and conditions named. In cells and extracts the contact can be indirect. A yes stands for co-enrichment or nearness to the bait. Other partners may have been found. For some of these results: Tags and fused reporters may be left off the sequences shown.
# Assays:
# [1] = target: GFP-DDB1 (human (cDNA from HeLa and HEK293 cells)) (UniProt Q16531); assay: affinity purification with mass spectrometry; GFP-DDB1 from U2OS Flp-In T-Rex lysate (50 mM Tris pH 7.4, NaCl, 1% Triton X-100, nuclease) on GFP-trap agarose beads, 3 h at 4 °C; SILAC: bait cells heavy (R10K8), GFP control cells light (R0K0); enriched = H/L ratio over 2; N = 3
# [2] = target: myc-BirA∗-DDB1 (human (cDNA from HeLa and HEK293 cells)) (UniProt Q16531); assay: proximity labelling; BioID with myc-BirA∗-DDB1 as bait in U2OS Flp-In T-Rex cells; doxycycline, 50 μM biotin 24 h; denaturing lysis, streptavidin beads, LC-MS/MS; SILAC: bait cells heavy (R10K8), myc-BirA∗ control cells light (R0K0); enriched = H/L ratio over 2; N = 3
# [3] = target: myc-BirA∗-RFWD2 (human (cDNA from HeLa and HEK293 cells)) (UniProt Q8NHY2); assay: proximity labelling; BioID with each of 58 myc-BirA∗-DCAFs as bait in stable U2OS Flp-In T-Rex cells; doxycycline, 50 μM biotin 24 h; streptavidin beads, LC-MS/MS; interactor = SAINT score over 0.7 against myc-BirA∗ control; N = 2
# [4] = target: myc-BirA∗-DDB2 (human (cDNA from HeLa and HEK293 cells)) (UniProt Q92466); assay: as above
# [5] = target: T1, myc-BirA∗-DCAF4 (human (cDNA from HeLa and HEK293 cells)) (UniProt Q8WV16); assay: as above
# T1 sequence: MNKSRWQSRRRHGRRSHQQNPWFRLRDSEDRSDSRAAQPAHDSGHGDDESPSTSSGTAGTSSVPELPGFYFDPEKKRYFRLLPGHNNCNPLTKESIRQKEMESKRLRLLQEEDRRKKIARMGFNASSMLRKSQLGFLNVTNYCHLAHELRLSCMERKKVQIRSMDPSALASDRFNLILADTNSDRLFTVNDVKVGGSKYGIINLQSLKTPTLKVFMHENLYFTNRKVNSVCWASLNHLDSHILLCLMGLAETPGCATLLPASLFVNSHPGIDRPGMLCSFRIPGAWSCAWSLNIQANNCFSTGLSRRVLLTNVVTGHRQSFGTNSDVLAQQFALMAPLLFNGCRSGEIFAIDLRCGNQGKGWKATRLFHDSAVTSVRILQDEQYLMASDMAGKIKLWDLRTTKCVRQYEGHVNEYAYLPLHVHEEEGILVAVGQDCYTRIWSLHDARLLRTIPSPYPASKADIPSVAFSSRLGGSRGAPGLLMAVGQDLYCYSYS
# [6] = target: myc-BirA∗-DCAF6 (human (cDNA from HeLa and HEK293 cells)) (UniProt Q58WW2); assay: as above
# [7] = target: myc-BirA∗-DCAF11 (human (cDNA from HeLa and HEK293 cells)) (UniProt Q8TEB1); assay: as above
# [8] = target: myc-BirA∗-GNB2 (human (cDNA from HeLa and HEK293 cells)) (UniProt P62879); assay: as above
# [9] = target: T2, myc-BirA∗-TRPC4AP (human (cDNA from HeLa and HEK293 cells)) (UniProt Q8TEL6); assay: as above
# T2 sequence: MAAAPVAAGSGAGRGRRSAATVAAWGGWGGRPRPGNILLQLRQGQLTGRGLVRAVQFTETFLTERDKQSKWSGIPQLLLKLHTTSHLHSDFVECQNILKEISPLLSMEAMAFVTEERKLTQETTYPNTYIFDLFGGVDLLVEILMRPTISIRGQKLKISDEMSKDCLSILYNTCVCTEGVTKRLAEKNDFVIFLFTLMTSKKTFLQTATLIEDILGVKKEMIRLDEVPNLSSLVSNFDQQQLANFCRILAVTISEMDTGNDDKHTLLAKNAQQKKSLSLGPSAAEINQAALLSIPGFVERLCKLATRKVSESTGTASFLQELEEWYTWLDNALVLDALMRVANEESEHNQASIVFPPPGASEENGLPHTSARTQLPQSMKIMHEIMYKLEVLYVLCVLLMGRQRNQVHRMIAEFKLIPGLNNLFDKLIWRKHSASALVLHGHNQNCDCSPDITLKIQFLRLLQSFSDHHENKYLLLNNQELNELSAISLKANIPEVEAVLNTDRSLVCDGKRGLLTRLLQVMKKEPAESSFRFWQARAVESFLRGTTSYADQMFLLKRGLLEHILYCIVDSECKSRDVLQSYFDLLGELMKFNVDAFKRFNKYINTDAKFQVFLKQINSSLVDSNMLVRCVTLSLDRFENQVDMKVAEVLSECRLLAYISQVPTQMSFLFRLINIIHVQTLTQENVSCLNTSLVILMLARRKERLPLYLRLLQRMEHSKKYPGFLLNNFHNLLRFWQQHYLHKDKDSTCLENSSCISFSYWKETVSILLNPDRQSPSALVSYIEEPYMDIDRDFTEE
# [10] = target: T3, myc-BirA∗-WDTC1 (human (cDNA from HeLa and HEK293 cells)) (UniProt Q8N5D0); assay: as above
# T3 sequence: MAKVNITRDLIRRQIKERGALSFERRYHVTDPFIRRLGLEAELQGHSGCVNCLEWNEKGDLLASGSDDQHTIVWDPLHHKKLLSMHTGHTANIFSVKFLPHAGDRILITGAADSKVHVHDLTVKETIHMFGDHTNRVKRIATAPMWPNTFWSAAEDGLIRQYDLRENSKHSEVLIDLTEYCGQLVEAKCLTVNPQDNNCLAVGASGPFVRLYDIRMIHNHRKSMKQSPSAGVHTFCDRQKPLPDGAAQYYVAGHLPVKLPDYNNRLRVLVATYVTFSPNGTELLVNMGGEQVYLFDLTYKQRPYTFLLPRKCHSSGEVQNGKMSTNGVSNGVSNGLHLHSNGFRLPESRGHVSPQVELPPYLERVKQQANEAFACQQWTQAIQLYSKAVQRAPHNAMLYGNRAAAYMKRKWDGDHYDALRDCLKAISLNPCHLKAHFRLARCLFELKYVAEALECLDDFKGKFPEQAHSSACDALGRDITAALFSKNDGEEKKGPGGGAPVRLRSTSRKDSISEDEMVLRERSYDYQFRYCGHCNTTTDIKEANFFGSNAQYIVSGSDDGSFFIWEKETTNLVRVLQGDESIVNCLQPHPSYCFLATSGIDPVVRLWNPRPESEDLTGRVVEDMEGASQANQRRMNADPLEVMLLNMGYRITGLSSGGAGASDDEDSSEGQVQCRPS
Substance,binding [1],binding [2],also measured
DCAF6 (from UniProt Q58WW2 1-860),binds,binds,–
DCAF8 (from UniProt Q5TAQ9 1-597),binds,–,–
DDB1 (from UniProt Q16531 1-1140),–,–,binding [3]: binds; binding [4]: binds; binding [5]: binds; binding [6]: binds; binding [7]: binds; binding [8]: binds; binding [9]: binds; binding [10]: binds
DDB2 (from UniProt Q92466 1-427),binds,binds,–
PHIP (from UniProt Q8WWQ0 1-1821),–,binds,–

# The next lines start with results.
binding [1],binding [2],Substance,also measured
binds,–,GRWD1 (from UniProt Q9BQ67 1-446),–
–,binds,DTL (from UniProt Q9NZJ0 1-730),–
